# Measured values published in patent US9301526B2, “Compounds with nematicidal activity” (BAYER INTELLECTUAL PROPERTY GMBH, priority 2011, dated 2016).
# Some of these results come from one statement about several compounds together.
# System: Cooperia curticei larvae
# Assay: Cooperia curticei test (COOPCU), larval mortality
# Format: in vivo
# Conditions: application rate 100 ppm; after 5 days; 100% = all larvae killed
# Protocol: Cooperia Curticei-Test (COOPCU)
# Solvent: dimethyl sulfoxide
# To produce a suitable preparation of active compound, 10 mg of active compound are dissolved in 0.5 ml solvent, and the concentrate is diluted with “Ringer's solution” to the desired concentration.
# Approximately 40 Cooperia curticei larvae are transferred into a test tube containing compound solution. After 5 days percentage of larval mortality are recorded. 100% efficacy means all larvae are killed; 0% efficacy means no larvae are killed.
row,SMILES,activity (percentage of larval mortality) [%]
1,COC(=O)C(CNC(=O)c1ccccc1C(F)(F)F)(C(=O)OC)c1ncc(C(F)(F)F)cc1Cl [Ia-1],100
2,CCOC(=O)C(CNC(=O)c1ccccc1C(F)(F)F)(C(=O)OCC)c1ncc(C(F)(F)F)cc1Cl [Ia-4],100
3,COC(=O)C(CNC(=O)c1ccccc1C(F)(F)F)c1ncc(C(F)(F)F)cc1Cl (stereo not drawn) [Ia-5],100
4,CCOC(=O)C(CNC(=O)c1ccccc1C(F)(F)F)(C(=O)OC)c1ncc(C(F)(F)F)cc1Cl (stereo not drawn) [Ia-6],100
5,O=C(NCC1(c2ccc(Cl)cn2)CC1)c1ccccc1C(F)(F)F [Ia-48],100
6,O=C(NCCc1cnc(C(F)(F)F)cc1Cl)c1ccccc1C(F)(F)F [Ib-47],100
7,O=C(NCCc1cnc(C(F)(F)F)cc1Cl)c1ccccc1Cl [Ib-49],100
8,O=C(NCCc1cnc(C(F)(F)F)cc1Cl)c1ccccc1C(F)F [Ib-50],100
9,O=C(NCCc1cnc(C(F)(F)F)cc1Cl)c1c(F)cccc1F [Ib-51],100
10,O=C(NCCc1cnc(C(F)(F)F)cc1Cl)c1ccccc1Br [Ib-52],100
11,O=C(NCCc1c(F)c(F)nc(F)c1F)c1ccccc1C(F)(F)F [Ic-1],100
12,O=C(NCCc1cc(F)ncc1F)c1ccccc1C(F)(F)F [Ic-7],100
